Where two headings read alike, the source gives them in different places. Results are given in words; binding and its absence hold for the method and conditions named. For some of these results: Binding seen in cells or lysates may run through a third protein. Some results given as binding are weak or reduced against the parent protein; the word gives no strength. For some of these results: Where a sequence is shown, tags or fusion partners need not be part of it.
How the values were obtained:
GST-PDZ ZO1 (human) [1] = target: GST-PDZ ZO1 (human) (UniProt Q07157); experiment: pull-down; […], NaCl 200 mM, 0.1% Triton; […]; only the target purified
GST-PDZ MLLT4 (human) [2] = target: T1, GST-PDZ MLLT4 (human) (UniProt P55196); experiment: as above
T1 sequence: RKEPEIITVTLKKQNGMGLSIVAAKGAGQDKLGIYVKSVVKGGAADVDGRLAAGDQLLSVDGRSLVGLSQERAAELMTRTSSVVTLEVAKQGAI

Sequences of proteins named here, by UniProt entry; tags and fusion partners are left off. Residues count along the entry.
UniProt Q07157, residues 184-264: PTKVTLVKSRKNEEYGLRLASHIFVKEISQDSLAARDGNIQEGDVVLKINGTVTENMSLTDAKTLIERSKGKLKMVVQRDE
UniProt Q8TEW0, residues 582-685: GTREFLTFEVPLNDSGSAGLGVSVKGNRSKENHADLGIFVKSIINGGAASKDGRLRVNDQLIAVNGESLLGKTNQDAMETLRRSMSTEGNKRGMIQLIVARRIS
UniProt P0DTC4: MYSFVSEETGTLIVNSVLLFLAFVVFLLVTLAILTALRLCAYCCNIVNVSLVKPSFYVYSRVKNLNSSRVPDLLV

GST-PDZ MPP5 (human) [3] = target: T2, GST-PDZ MPP5 (human) (UniProt Q8N3R9); experiment: as above
T2 sequence: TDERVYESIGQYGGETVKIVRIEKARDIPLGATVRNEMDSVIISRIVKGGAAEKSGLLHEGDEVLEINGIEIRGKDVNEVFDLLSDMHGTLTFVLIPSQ

GST-PDZ LNX2 (human) [4] = target: T3, GST-PDZ LNX2 (human) (UniProt Q8N448); experiment: as above
T3 sequence: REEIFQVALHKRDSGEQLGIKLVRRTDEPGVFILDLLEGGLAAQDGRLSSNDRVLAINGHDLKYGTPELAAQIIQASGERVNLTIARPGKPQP

MLLT4 PDZ (human) = target: T4, MLLT4 PDZ (human) (UniProt P55196); experiment: crystal structure; both purified
T4 sequence: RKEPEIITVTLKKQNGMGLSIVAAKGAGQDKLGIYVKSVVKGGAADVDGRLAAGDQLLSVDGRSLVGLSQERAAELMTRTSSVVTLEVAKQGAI

GST-PDZ ZO1 (human) [5] = target: GST-PDZ ZO1 (human) (UniProt Q07157); experiment: pull-down; […], NaCl 200 mM, 0.1% Triton; […]; only the target purified; remark: listed apart in the source
GST-PDZ PARD3 (human) = GST-PDZ PARD3 (human) (UniProt Q8TEW0); experiment: as above
GST-PDZ MLLT4 (human) [6] = target: T1, GST-PDZ MLLT4 (human); experiment: as above; remark: listed apart in the source
GST-PDZ MPP5 (human) [7] = target: T2, GST-PDZ MPP5 (human); experiment: as above; remark: listed apart in the source
GST-PDZ LNX2 (human) [8] = target: T3, GST-PDZ LNX2 (human); experiment: as above; remark: listed apart in the source

Measured: binding

GFP-tagged wild-type full-length E protein (from UniProt P0DTC4 1-75)
binds: GST-PDZ ZO1 (human) [1] | GST-PDZ MLLT4 (human) [2] | GST-PDZ MPP5 (human) [3] | GST-PDZ LNX2 (human) [4]

B1: C-terminal SARS-CoV-2-E PBM peptide (peptide)
peptide: NLNSSRVPDLLV
notes: also called SARS-CoV-2 WT; SARS-CoV-2 peptide E
binds: MLLT4 PDZ (human)

NLNSSRVPDLLV (domain or fragment) [GFP-tagged cytoplasmic tail of protein E (last 12 residues)]
binds: GST-PDZ ZO1 (human) [5] | GST-PDZ PARD3 (human) | GST-PDZ MLLT4 (human) [6] | GST-PDZ MPP5 (human) [7] | GST-PDZ LNX2 (human) [8]

Reference: paper PMC8909127 (Frontiers in Microbiology, 2022)
